Results published in PubChem BioAssay AID493176 (Broad Institute, 2011).
The source calls these results inconclusive, neither active nor inactive.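 Rule for the calls: active = every replicate test active, with falling luminescence and half-maximal potency within ten times the top tested dose; inconclusive = tests disagree, or partial flat loss or unreliable fit; inactive = all tests inactive, flat or rising signal or weak potency.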

Assay: viability loss in HMLE_shECad cells – cell-based, CellTiter-Glo luminescence, dry powder, set 3, dose response (AID 493176)
Conditions: 72 h; at 19.5 µM (top of the series)
Summary of the method: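 Material: E-cadherin-knockdown HMLE cells (HMLE_shECad), CSC-like; quantity: 2000 cells per well; medium: serum-free CSC medium; schedule: ≥4 h settling, then ~70-74 h compound treatment at 37 °C; measured by: CellTiter-Glo luminescent signal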

Question: With `Cc1ccc(N2C(=O)CC(N(CCc3ccccc3)C(=S)Nc3ccc(N(C)C)cc3)C2=O)cc1` (stereo unspecified) as the compound, how does the activity change, negative = inhibition read?
Answer: inconclusive: -3.97%
